# Reference: PMC9675739, “Structural and functional asymmetry of RING trimerization controls priming and extension events in TRIM5α autoubiquitylation” (Nature Communications, 2022)
# By UniProt entry, the sequences of proteins in these tests, tags left out. Where a name states a change or a piece, a line headed by the entry shows the natural chain unless it says otherwise. Chains listed by the source or under a name are the forms on record and can include a tag or linker.
# R1-I77R, isolated RING domain of rhesus TRIM5α with I77R (Q0PF16, form named): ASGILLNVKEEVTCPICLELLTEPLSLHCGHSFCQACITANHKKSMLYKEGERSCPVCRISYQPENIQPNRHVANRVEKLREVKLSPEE
# These are yes or no findings as the source states them, for the method shown.
# Biological target: R1-I77R, isolated RING domain of rhesus TRIM5α with I77R (rhesus monkey) (UniProt Q0PF16)
# Experiment: AUC; sedimentation velocity, 20 °C, 50 mM Tris-HCl pH 7.5, 150 mM NaCl, 1 mM TCEP, c(S) analysis; both purified
substance,measurement,value
"R1-I77R, isolated RING domain of rhesus TRIM5α with I77R (from UniProt Q0PF16 2-90) (domain or fragment)",binding,no binding
